Reference: PMC10163288
This is one part of the list.

B1: il10ra_site1_normal_mot_HHH_b1_05357_000000034_0001_23_39_H_._ems_3hC_618_0001_0001_0000600039_0000001_0 (protein)
chain: KEEARDRASHLIIQAYALAHQSDPEAREEAEELIKEAEELAKEANDPAVEQAVRIAKEEIEEACS
B2: il10ra_site1_sap_15_mot_HHH_b2_03745_000000022_0001_1_20_H_._HHH_b2_06044_0001_0000100003_0000001_0_0001 (protein)
chain: SSSDREIALRAAELSIEAIQLQHRGDEEALEEIVEEVRELVEELGDPYVRIVLRFVESLLRNSSS
B3: il10ra_site1_sap_22_mot_HHH_b1_06804_000000054_0001_40_54_H_._HHH_b1_06242_af2_0002_0000600032_0000001_0_0001 (protein)
chain: SSSSDEEERHYVEAARRFAELAAEAGNPEMVESILELLREILERLNDEELLEQVEELLEELSSSS
B4: il10ra_site1_sap_24_mot_HHH_b2_06480_af2_000000075_0001_1_18_H_._HHH_b1_07760_af2_0001_0000600037_0000002_0_0001 (protein)
chain: SSSSDEATREVYELSRRAMEALAEGDPEEAREILEEALEIARENNDRIMAVVLEYILRLLNSSSS
B5: il10ra_site1_normal_mot_HHH_b1_07878_000000292_0001_1_19_H_._HHH_b2_06173_0001_0000700028_0000002_0_af2pred_0001 (protein)
chain: SSSSDEAFEITRRAIEEAVKLLEEGDPEKAEQVVEEALRLVEELNNFAAFASLKHLLEIIRSSSS
B6: il10ra_site1_normal_mot_HHH_b1_00814_af2_000000078_0001_43_57_H_._HHH_b2_00423_af2_0003_0000500024_0000003_0_af2pred_0001 (protein)
chain: SSSSSSEEEVRELLKEAEEALERGNPQEAIELLRRALRLAAELNNPELLKLVLEVARHVISSSSS
B7: il10ra_site1_normal_mot_HHH_b2_02354_af2_000000157_0001_40_56_H_._HHH_b1_04654_af2_0001_0000100004_0000002_0 (protein)
chain: SSSSDEERRIAQLIEEVMRLIKEGDDEEAKKLLEELKELAEELNDPNLKFIIRSLELAVRQSSSS
B8: il10ra_site1_normal_mot_HHH_b2_01447_af2_000000258_0001_1_20_H_._HHH_b1_01394_0001_0000100005_0000001_0 (protein)
chain: SSSSTEEVQEIMKLLRRLAELVQNRDEEEFEEIVREAERLIEEANNEILEFALRLLEEAINSSSS
B9: il10ra_site1_sap_22_mot_HHH_b1_03460_000000139_0001_1_20_H_._HHH_b1_03209_af2_0001_0000300017_0000001_0_0001_af2pred_0001 (protein)
chain: SSSSSSDLERLLEAIRRLLELGDEELAELTLRFLKRLAEDLGDEEVEEEVKRLEEELESSSSSSS
B10: il10ra_site1_sap_15_mot_HHH_b2_04050_000000291_0001_1_20_H_._HHH_b2_00671_af2_0001_0000400020_0000001_0_0001_af2pred_0001 (protein)
chain: SSSSDEEEAAQEAFRLLREALHIDDEEEARKILEEALELAEEANNETLRWSIRRALEELESSSSS
B11: il10ra_site1_sap_14_mot_HHH_b1_00103_000000293_0001_1_15_H_._HHH_b2_03603_0001_0000200017_0000002_0_0001_af2pred_0001 (protein)
chain: SSSSSDQEYREEVEELLEEAEKISDPDRRSYVLIRAFALANRGNDPELRELVEKVAIELISSSSS
B12: il10ra_site1_sap_19_mot_8756ee2cf497b5429c717dfc0c0bcfd6_0001_000000186_0001_1_13_H_._HHH_b2_04852_0001_0000700039_0000001_0_0001 (protein)
chain: SSSSQEFYRLLERAIELASKLNDEETLKEIMELLREWFKKGDPRLEEQLKELLEELEERGSSSSS
B13: il10ra_site1_sap_17_mot_HHH_b2_03328_af2_000000127_0001_1_19_H_._HHH_b1_04993_0001_0000100008_0000001_0_0001 (protein)
chain: SSSSSIRERIIRLLYRALRLAAEGNPEEAERLIEEAHELAEELGDPELERYIRILLHFVRSSSSS
B14: il10ra_site1_sap_18_mot_HHH_b1_01874_000000035_0001_1_20_H_._HHH_b1_01794_af2_0001_0000100003_0000001_0_0001 (protein)
chain: SSSSSEENQEALRLSLEAFRLALRGNPEEAKEVLEEAAELAHRAGNERLLRQIENMLEALKSSSS
B15: il10ra_site1_normal_mot_HHH_b2_04057_000000065_0001_1_20_H_._HHH_b1_08686_0001_0000500032_0000002_0 (protein)
chain: SSSSSEEEVQELLREAEELNRRGDPDEAYKVIREVIELAAELNDPELQRLVLRLIREFLRLSSSS
B16: il10ra_site1_normal_mot_b26a303360aa2756ef5b79665ce52f45_0001_000000179_0001_1_11_H_._153aee36648f4e76fbed4769f1632b1b_0001_0001_0000400017_0000001_0 (protein)
chain: SKLEEVEELLEELAKRDVVAISLLHLLRADKRAGVPPEEILERLQEAARRANSPFARELLKLLEK
B17: il10ra_site1_sap_14_mot_HHH_b2_00943_af2_000000149_0001_1_17_H_._HHH_b2_04744_0001_0000100007_0000002_0_0001_af2pred_0001 (protein)
chain: SSSSTEEVRELFKLLRRVIELASEGDKEEFEELVEEAEELARELGNTTFEVILEFLKEQQSSSSS
B18: il10ra_site1_normal_mot_HHH_b1_05357_000000034_0001_23_39_H_._HHH_b1_03625_af2_0001_0000700020_0000001_0 (protein)
chain: SSSSSDEKEVTHILIQAYAAANHGNPEEAEELLKEAKEIAEEINNERLKLSIEKVEEILRSSSSS
B19: il10ra_site1_sap_18_mot_HHH_b2_04251_af2_000000037_0001_42_56_H_._HHH_b1_04956_0001_0000300035_0000001_0_0001_af2pred_0001 (protein)
chain: SSSSSSDAAREAIELIREALHIEDKEEAKELLEEAEELAQEANNPLALLQIRFALEQLSSSSSSS
B20: il10ra_site1_normal_mot_HHH_b2_03425_000000200_0001_22_39_H_._HHH_b1_07967_af2_0001_0000300014_0000002_0 (protein)
chain: SSSSNERERLYELLRRLIELSRHRDEEEFEKVYEEIQELVEELNNLLARFVLEIIERAFEGSSSS
B21: il10ra_site1_normal_mot_HHH_b2_02053_af2_000000006_0001_3_19_H_._HHH_b1_02595_0001_0000100002_0000001_1 (protein)
chain: SSSSTEADEEIYRLLRRVLELLARGNPEEAREVLEEAQELAEENNNRNLLFNIRHLKRDVNSSSS
B22: il10ra_site1_sap_20_mot_HHH_b1_07527_000000076_0001_1_15_H_._HHH_b1_08045_af2_0001_0000300025_0000001_0_0001_af2pred_0001 (protein)
chain: SSSSSEVREEVAKILAEAFVLAREGNPEEVEKVLEEAREVAEEHNDRQAERLVEFVEKILKSSSS
B23: il10ra_site1_normal_mot_HHH_b1_00999_000000080_0001_41_55_H_._ems_p1-15H-GBL-16H-GABBL-16H_0175_0001_0001_0002_af2_0001_0000200009_0000001_0 (protein)
chain: SSSSSDVSELAAEAVRFAFRNGDEEGLQEIWEIVKAWGNGEISREEASERLEEILEELRSSSSSS
B24: il10ra_site1_sap_15_mot_HHH_b2_07006_000000108_0001_1_19_H_._HHH_b1_01905_0001_0000100005_0000002_0_0001 (protein)
chain: SSSSDEWYERVKEILEEVVKLLRNGDPEEAEKLLEELEELVRENNDMATLATVEWLKELVRSSSS
B25: il10ra_site1_sap_13_mot_HHH_b1_02665_000000293_0001_1_18_H_._HHH_b1_06851_af2_0001_0000400020_0000001_0_0001 (protein)
chain: SSSSEEIYELVKRVIELAVEANDPEAARRAMELFIRYAQEGDPRYKEELEELLEELEEELRSSSS
B26: il10ra_site1_sap_23_mot_HHH_b1_02809_af2_000000277_0001_40_57_H_._HHH_b1_00736_af2_0001_0000600067_0000001_0_0001 (protein)
chain: SSSSSSDIEEIVEELLEEAEHVDEEERSKLLQEAVQFAIQGQDPELLRLVWRVVKELGKSSSSSS
B27: il10ra_site1_sap_16_mot_HHH_b1_06816_000000239_0001_1_19_H_._HHH_b1_03656_af2_0001_0000200006_0000001_0_0001_af2pred_0001 (protein)
chain: SSSSSSEELLRLAKKSIEIAEENGDEEKIKIAAHALLNAAKKANDPEALRFAEEVLEEVNSSSSS
B28: il10ra_site1_normal_mot_HHH_b1_05185_000000011_0001_22_39_H_._HHH_b1_04526_0002_0000200028_0000002_0 (protein)
chain: SSSSDEEIKRVSELFQRMSKLLEEGDHERVEELLEELKELAEEINDPYARLSAHFIEALLNSSSS
B29: il10ra_site1_normal_mot_HHH_b1_04065_000000255_0001_41_56_H_._HHH_b2_07924_0001_0000100001_0000001_0 (protein)
chain: SSSSSDEEREEAEELLEEAKEIDDERERSELLAKALRIATELRDRELARLVDRVAIRLYHSSSSS
B30: il10ra_site1_normal_mot_HHH_b1_03754_af2_000000016_0001_40_56_H_._HHH_b2_05518_0001_0000100006_0000001_0 (protein)
chain: SSSSSEEERYLELSLRFLRFLLEAGDERAARRFAHALLQLAERLNDEEVQEEVKKILEELSSSSS
B31: il10ra_site1_normal_mot_HHH_b1_05357_000000034_0001_23_39_H_._HHH_b1_06316_0001_0000500053_0000001_0_af2pred_0001 (protein)
chain: SSSSSDEEEREVEEILEEAEKIEDPEERSYVLTEAYALANRVKDPELKELVRRVAQELTSSSSSS
B32: il10ra_site1_sap_20_mot_HHH_b1_03763_000000209_0001_22_38_H_._75682a83c85cb44ccff1401ed1a83487_0001_1_0001_0000400017_0000002_0_0001_af2pred_0001 (protein)
chain: SSSSTEAEVIVRIYKEAVKAAEELGDERAAKLAIEAALLQLRRLGDEEAVERLEKLLEEVTSSSS
B33: il10ra_site1_normal_mot_HHH_b2_01397_000000078_0001_23_39_H_._HHH_b2_08075_0001_0000300026_0000002_0_af2pred_0001 (protein)
chain: SSSSDERVKLTLRFAEALAKHGDRRAVELLLRAARQLAERDGDEELEELIEEVEERVRELLSSSS
B34: il10ra_site1_sap_23_mot_39a7b8d0c4c3fc04bafbda6ce6101d3a_0001_1_af2_000000014_0001_34_48_H_._HHH_b2_06439_af2_0001_0000200006_0000001_0_0001 (protein)
chain: SSSSDEEQEEALRLSIEAFRLALRGNPEEARKLLEEALELAEELGDERLAEVIRILLETATSSSS
B35: il10ra_site1_sap_26_mot_HHH_b1_00103_000000293_0001_1_15_H_._HHH_b1_01986_0002_0000200014_0000002_0_0001_af2pred_0001 (protein)
chain: SEEEEELIEEASELAGVPPEEIERLLEAVKDVAGGDPEAIKRIVEAALRLIGDPVVEALLIALRR
B36: il10ra_site1_sap_25_mot_HHH_b2_01447_af2_000000258_0001_1_20_H_._HHH_b1_07840_0001_0000200009_0000001_0_0001_af2pred_0001 (protein)
chain: SSSDLEEEVEEIEKRLRELAEEGDEREFAQLLFRLLRLANEYNDEEASHLALKLAAEFLKKSSSS
B37: il10ra_site1_sap_26_mot_HHH_b2_08004_000000101_0001_1_17_H_._HHH_b2_05953_0001_0000600049_0000002_0_0001 (protein)
chain: SSSSSSEAEERVRELLEEAKHIDDPDEWYRLLKEAIELATENRDDEAIELVMEFNREAIHSSSSS

target: il10ra, Q13651; assay: yeast display titration

Apparent Kd, inactive:
B1 no binding seen, B2 no binding seen, B3 no binding seen, B4 no binding seen, B5 no binding seen, B6 no binding seen, B7 no binding seen, B8 no binding seen, B9 no binding seen, B10 no binding seen, B11 no binding seen, B12 no binding seen, B13 no binding seen, B14 no binding seen, B15 no binding seen, B16 no binding seen, B17 no binding seen, B18 no binding seen, B19 no binding seen, B20 no binding seen, B21 no binding seen, B22 no binding seen, B23 no binding seen, B24 no binding seen, B25 no binding seen, B26 no binding seen, B27 no binding seen, B28 no binding seen, B29 no binding seen, B30 no binding seen, B31 no binding seen, B32 no binding seen, B33 no binding seen, B34 no binding seen, B35 no binding seen, B36 no binding seen, B37 no binding seen
